## Percent effect of library compounds

From ChEMBL document CHEMBL3988442, “University of Dundee, Small-Polar-MMV Screening Library” (2021).

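Whole-parasite assay of Trypanosoma brucei over 72 hours; the read-out is not stated. Tested at 10 µM. The record gives no direction; compounds that gave an IC50 in retests scored well above the rest, so higher reads as stronger inhibition. Values scatter widely below zero; nearly all retest evidence comes from the higher of the two concentrations used. Of about 2,700 compounds tested this way, about 14 (0.51%) reached 50% or more in at least one test.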

Results are given as percent effect. The record does not define 0% and 100%; most values in the screen are far below 50% and negative numbers occur (in some assays of this library far below -100). The compounds are a random part of those screened.

SMILES	effect
Cc1ccc(CC(=O)N2CCCC(c3ccn[nH]3)C2)cn1 (centres undefined)	-42.54%
Cn1nc2c(cc1=O)CN(Cc1nc(-c3cccnc3)no1)CC2	-12.71%
COc1ccc(CC(=O)N2CCCCC2Cn2cc(C)cn2)cc1F (centres undefined)	-57.42%
CCCc1noc(CCC(=O)N2CCCC2c2ccncc2)n1 (centres undefined)	-6.9%
Nc1nc(CN2CCOC(Cn3cccn3)C2)nc2ccccc12 (centres undefined)	-34.72%
Cc1cnn(CC2CCCCN2C(=O)Cc2cn3ccsc3n2)c1 (centres undefined)	-52.93%
O=C(NCCCn1ccnc1)NCC(c1ccco1)N1CCCC1 (centres undefined)	-43.55%
O=C(Nc1cccc(CNCc2ccccn2)c1)C1CCCC1	-31.12%
CCn1cnnc1CNC(=O)N1CCC(O)CC1	-2.133%
Cc1cc(C(=O)NCc2cccnc2N(C)C)c(C)o1	-16.75%
O=C(CCN1CCN(c2ccc3nncn3n2)CC1)N1CCCCC1	-27.78%
CCn1ccnc1CN1CCCN(C(=O)COC2CCCC2)CC1	-37.37%
CC(C)c1nnc2n1CCN(C(=O)Cc1csc(C(C)(C)C)n1)C2	-70.78%
CNc1cc2c(nn1)CCN(C(=O)c1cccc3c1OCCO3)C2	-31.25%
Cc1ccc(-c2nnc(CNCCn3cccn3)o2)cc1	8.966%
CC(Cn1ccnc1)NC(=O)Nc1ccccn1 (centres undefined)	-4.307%
O=C(c1ccc2c(c1)CCC2)N1CCC(c2n[nH]c(C3CC3)n2)CC1	-14.8%
COc1ccc(C)cc1C(=O)N1CCCC(n2cncn2)C1 (centres undefined)	-37.96%
COc1cc(C)sc1C(=O)N1CCCC(n2nc(C)nc2C)C1 (centres undefined)	-33.53%
CCCC(=O)N(C)CC(=O)Nc1ccc(Br)cn1	-17.52%
CCc1noc(C(C)N2CCN(C)CC2)n1 (centres undefined)	-40.65%
CCN1CCN(Cc2nc(CC(C)C)no2)CC1	-12.44%
CCc1nc(CN2CCN(C(=O)c3csnn3)CC2)cs1	-45.28%
CN(Cc1noc(C2CC2)n1)C1CCN(Cc2ccccc2C#N)C1 (centres undefined)	-46.89%
CN(C)c1cc(CNc2cncc(-n3cccn3)n2)ccn1	-45.61%
Cc1nnc(NCc2ccccc2F)c(C#N)c1C	-51.74%
O=C(NCc1csc(Br)c1)c1cnccn1	-58.48%
CC(NC(=O)NCCCn1cncn1)c1ccc(F)cc1 (centres undefined)	-22.68%
Clc1ccccc1CCN1CCN(c2ccc3nncn3n2)CC1	55.98%
CCOCCCn1c(NC(=O)c2cnc(C)s2)nc2ccccc21	-28.52%
CN1CCCN(C(=O)NCCOc2ccc3c(c2)OCO3)CC1	-34.42%
CCn1cnnc1CNC(=O)N1CCC(CN2CCOCC2)CC1	-22.85%
Cc1cccc(OCCC(=O)N2CCN(CC(=O)NC3CC3)CC2)c1C	-13.66%
Cc1ccc(-n2cc(C(=O)N3CCCC(n4cccn4)C3)nn2)cc1 (centres undefined)	-32%
O=C(NCCn1nc2ccccn2c1=O)c1sccc1-c1ccccc1	-36.43%
Cc1csc(CNC(=O)N2CCCC(c3nncn3C)C2)n1 (centres undefined)	-43.67%
CC(Cn1cccn1)NC(=O)NCc1ccc(S(C)(=O)=O)cc1 (centres undefined)	-73.77%
Cc1nc(C2CCCN(C(=O)c3cnn(C4CCCCC4)c3)C2)no1 (centres undefined)	-45.69%
CCn1ccnc1CN1CCCN(C(=O)c2scnc2C)CC1	-61.1%
CC1CN(C(=O)CN(Cc2ccccc2)C2CC2)CCO1 (centres undefined)	-50.45%
CCc1ncc(C(=O)N2CCC(Nc3ccc(C)nn3)CC2)s1	-8.332%
CCc1n[nH]c(C2CN(Cc3nnc(C4CC4)o3)CCO2)n1 (centres undefined)	-5.84%

The first 2 entries again:

Cc1ccc(CC(=O)N2CCCC(c3ccn[nH]3)C2)cn1 (centres undefined) read -42.54%.
Cn1nc2c(cc1=O)CN(Cc1nc(-c3cccnc3)no1)CC2 read -12.71%.